These are yes or no findings as the source states them, for the method shown. Some binding calls cover weakened binding; strength is not graded here.
What was measured:
Experiment in all cases: two-hybrid
[1] = target: OsMADS8 (rice ortholog of SEP3), GAL4 BD fusion (rice (Oryza sativa L.)) (UniProt Q9SAR1)
[2] = target: OsMADS14 (rice ortholog of AP1), yeast two-hybrid fusions (rice (Oryza sativa L.)) (UniProt Q10CQ1)
[3] = target: OsMADS15 (rice ortholog of AP1), yeast two-hybrid fusions (rice (Oryza sativa L.)) (UniProt Q6Q9I2)

Amino acid sequences for entries named in this document (tags omitted).
UniProt Q9SAR1: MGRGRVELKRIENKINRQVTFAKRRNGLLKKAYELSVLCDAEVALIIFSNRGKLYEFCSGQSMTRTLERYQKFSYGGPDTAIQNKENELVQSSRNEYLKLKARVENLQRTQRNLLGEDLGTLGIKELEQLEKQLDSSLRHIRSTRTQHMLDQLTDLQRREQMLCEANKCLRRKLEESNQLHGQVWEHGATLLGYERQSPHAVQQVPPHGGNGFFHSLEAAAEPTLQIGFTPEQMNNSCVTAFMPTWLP
UniProt Q10CQ1: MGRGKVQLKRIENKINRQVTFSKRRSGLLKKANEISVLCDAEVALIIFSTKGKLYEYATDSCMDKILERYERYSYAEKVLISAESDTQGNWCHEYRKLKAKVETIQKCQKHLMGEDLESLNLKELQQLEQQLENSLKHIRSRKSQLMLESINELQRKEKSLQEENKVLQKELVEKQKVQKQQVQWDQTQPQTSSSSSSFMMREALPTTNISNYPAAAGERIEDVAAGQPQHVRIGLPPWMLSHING
UniProt Q6Q9I2: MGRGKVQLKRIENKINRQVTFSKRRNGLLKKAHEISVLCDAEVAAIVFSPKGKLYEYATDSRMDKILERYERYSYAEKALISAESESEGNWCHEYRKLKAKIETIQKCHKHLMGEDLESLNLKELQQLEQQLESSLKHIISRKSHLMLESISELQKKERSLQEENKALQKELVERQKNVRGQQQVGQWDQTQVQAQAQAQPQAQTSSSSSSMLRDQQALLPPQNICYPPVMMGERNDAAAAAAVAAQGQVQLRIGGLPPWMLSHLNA
UniProt Q0D4T4: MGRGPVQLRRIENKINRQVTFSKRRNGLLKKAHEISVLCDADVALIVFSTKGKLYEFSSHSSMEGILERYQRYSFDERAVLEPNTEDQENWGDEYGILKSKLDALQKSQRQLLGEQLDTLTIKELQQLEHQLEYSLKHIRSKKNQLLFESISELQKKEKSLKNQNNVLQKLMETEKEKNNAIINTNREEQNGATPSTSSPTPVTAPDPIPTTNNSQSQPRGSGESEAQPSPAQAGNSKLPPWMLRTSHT

Q: How did the binding [1] turn out when “OsMADS14 (rice ortholog of AP1), yeast two-hybrid fusions (from UniProt Q10CQ1 1-246)” was run?
A: binds

Q: Which binding [2] does the source give for “OsMADS15 (rice ortholog of AP1), yeast two-hybrid fusions (from UniProt Q6Q9I2 1-267)” here?
A: binds

Q: What about the binding [1] of the same substance?
A: binds

Q: Which binding [2] does the source give for “OsMADS18 (rice ortholog of AP1), yeast two-hybrid fusions (from UniProt Q0D4T4 1-249)” here?
A: binds

Q: What about the binding [3] of the same substance?
A: binds

Q: What about the binding [1] of the same substance?
A: binds

Reference: article doi:10.1101/552612
